{"source": "PubChem BioAssay AID276", "about": "(DTP/NCI, 2004)", "system": "B6C3F1 mice, Lewis lung carcinoma iv, survival T/C", "experiment": "NCI In Vivo Anticancer Drug Screen. Data for tumor model Lewis Lung Carcinoma (intravenous) in B6C3F1 mice", "conditions": "T/C endpoint: median survival time, schedule: Q01DX009 (ip), higher T/C = longer survival", "protocol": "The antitumor activity of compounds was measured in mice bearing transplantable tumors. Survival or tumor size were measured and the results are expressed as the measurement made in the treated group (T) divided by the measurement made in the vehicle treated control group (C). The tumor model used in this assay is Lewis Lung Carcinoma (intravenous) in B6C3F1 mice", "key": {"[1]": {"conditions": "dose: 12.5 mg/kg/injection, vehicle: saline"}, "[2]": {"conditions": "dose: 25.0 mg/kg/injection, vehicle: saline"}, "[3]": {"conditions": "dose: 50.0 mg/kg/injection, vehicle: saline"}, "[4]": {"conditions": "dose: 100.0 mg/kg/injection, vehicle: saline"}, "[5]": {"conditions": "dose: 200.0 mg/kg/injection, vehicle: saline"}, "[6]": {"conditions": "dose: 400.0 mg/kg/injection, vehicle: saline"}}, "note": "The list shows only some results of the screen, not a fair sample: it gathers some chemical classes. Other doses and runs of a compound may be missing. T/C is the treated group as % of the vehicle group. Some doses have a count of surviving animals in place of a T/C: the source files T/C as zero there, which appears to mark a toxic dose or a test without result, not a measured value. Some doses without a T/C left all or most animals alive at the check, yet need not have been tolerated: survival well below the control is almost never listed, so the zero probably covers shortened survival too. Counts of survivors are from the toxicity check (mostly the fifth day) where no day follows; animals may have died later. Schedules are NCI's codes, read here as Q, the interval in days (D) or hours (H), X, the number of doses. Some metal complexes and salts are drawn in pieces, as in the source, so charges may not balance. Where survival is the endpoint, this PubChem deposit counts one and a half times the control or more as active, and values a quarter to a half above the control carry no call in these data; other NCI protocols may use other cut-offs. Some T/C values carry the count of animals alive at the toxicity check (mostly the fifth day); where neither a count nor a note follows, no animal had died by that day."}
{"compound": "ICCN(CCI)c1cccc2ccccc12", "values": [{"measurement": "T/C", "setting": "dose: 3.12 mg/kg/injection, vehicle: Klucel (hydroxypropylcellulose) (HPC)", "result": "111 % of control"}, {"measurement": "T/C", "setting": "dose: 6.25 mg/kg/injection, vehicle: Klucel (hydroxypropylcellulose) (HPC)", "result": "114 % of control [9 of 10 alive]"}, {"measurement": "survivor count", "setting": "dose: 12.5 mg/kg/injection, vehicle: Klucel (hydroxypropylcellulose) (HPC)", "result": "10 of 10"}, {"measurement": "survivor count", "setting": "dose: 25.0 mg/kg/injection, vehicle: Klucel (hydroxypropylcellulose) (HPC)", "result": "10 of 10"}, {"measurement": "survivor count", "setting": "dose: 50.0 mg/kg/injection, vehicle: Klucel (hydroxypropylcellulose) (HPC)", "result": "5 of 10"}, {"measurement": "survivor count", "setting": "dose: 100.0 mg/kg/injection, vehicle: Klucel (hydroxypropylcellulose) (HPC)", "result": "0 of 10"}]}
{"compound": "CC1(C)CN1P(=O)(Nc1ncccn1)N1CC1(C)C", "note": "(centres undefined)", "values": [{"measurement": "T/C", "setting": "[1]", "result": "101 % of control"}, {"measurement": "T/C", "setting": "[2]", "result": "101 % of control"}, {"measurement": "T/C", "setting": "[3]", "result": "110 % of control"}, {"measurement": "T/C", "setting": "[4]", "result": "105 % of control"}, {"measurement": "survivor count", "setting": "[5]", "result": "10 of 10"}, {"measurement": "survivor count", "setting": "[6]", "result": "9 of 10"}]}
{"compound": "Cc1ccc(Sc2ccc([N+](=O)[O-])cc2[N+](=O)[O-])c([N+](=O)[O-])c1", "values": [{"measurement": "T/C", "setting": "[1]", "result": "100 % of control"}, {"measurement": "T/C", "setting": "[2]", "result": "102 % of control"}, {"measurement": "T/C", "setting": "[3]", "result": "101 % of control"}, {"measurement": "T/C", "setting": "[4]", "result": "98 % of control"}, {"measurement": "T/C", "setting": "[5]", "result": "101 % of control"}, {"measurement": "T/C", "setting": "[6]", "result": "101 % of control"}]}
{"compound": "[Au].[C-]#N.[C-]#N", "values": [{"measurement": "T/C", "setting": "dose: 0.62 mg/kg/injection, vehicle: saline", "result": "96 % of control"}, {"measurement": "T/C", "setting": "dose: 1.25 mg/kg/injection, vehicle: saline", "result": "92 % of control"}, {"measurement": "T/C", "setting": "dose: 2.5 mg/kg/injection, vehicle: saline", "result": "114 % of control"}, {"measurement": "T/C", "setting": "dose: 5.0 mg/kg/injection, vehicle: saline", "result": "97 % of control"}, {"measurement": "T/C", "setting": "dose: 10.0 mg/kg/injection, vehicle: saline", "result": "105 % of control"}, {"measurement": "survivor count", "setting": "dose: 20.0 mg/kg/injection, vehicle: saline", "result": "0 of 10"}]}
